Reference: patent publication US20170152299A1 (GUANGZHOU SHENGLU BIOTECH, published 2017)
Where a chain is given by its changes, count along the chain named. Names and notes keep the numbering of the source. These are yes or no findings as the source states them, for the method shown. Some entries that bind do so weakly or less than the wild type.

T1: FGF7 (UniProt P21781 32-194)
T1 construct: Bought reagent; also called KGF
T1 sequence (looked up): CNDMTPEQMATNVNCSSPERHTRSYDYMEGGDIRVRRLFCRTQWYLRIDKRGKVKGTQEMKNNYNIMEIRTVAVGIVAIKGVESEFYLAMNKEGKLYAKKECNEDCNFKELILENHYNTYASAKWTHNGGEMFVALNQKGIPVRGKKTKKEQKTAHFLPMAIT

B1: truncated protein of the wild-type FGFR2b extracellular fragment (SEQ ID NO: 8) (receptor)
chain: KRAPYWTNTEKMEKRLHAVPAANTVKFRCPAGGNPMPTMRWLKNGKEFKQEHRIGGYKVRNQHWSLIMESVVPSDKGNYTCVVENEYGSINHTYHLDVVERSPHRPILQAGLPANASTVVGGDVEFVCKVYSDAQPHIQWIKHVEKNGSKYGPDGLPYLKVLKHSGINSSNAEVLALFNVTEADAGEYICKVSNYIGQANQSAWLTVLPKQQAPGR
notes: also called truncated FGFR2b extracellular fragment, wild type
B2: truncated protein of S252W mutant-type FGFR2b extracellular fragment (SEQ ID NO: 10) (receptor)
chain: B1 chain with S102W
notes: also called truncated FGFR2b extracellular fragment, S252W mutant type
B3: truncated protein of P253R mutant-type FGFR2b extracellular fragment (SEQ ID NO: 12) (receptor)
chain: B1 chain with P103R
notes: also called truncated FGFR2b extracellular fragment, P253R mutant type

biological target: T1, FGF7; test: isothermal titration calorimetry, FGF7 titrated into the fragment

Row | binding | Binder
1 | binds | B1
2 | binds | B2
3 | binds | B3
